No constants are given. Whether binding was seen depends on the method and setting. Binding seen in cells or lysates may run through a third protein. A yes stands for co-enrichment or nearness to the bait. Other partners may have been found. A no says only that the protein was not detected with the bait.
Molecular target: T1, membrane-bound CD52 of CD4+ T cells (human (endogenous in CD4+ T cells of patients)) (UniProt P31358)
T1 sequence: GQNDTSQTSSPS
Assay: proximity labelling; AD CD4+ T cells (n = 4) stained with HRP-conjugated anti-human CD52 antibody or IgG1 isotype; 95 μM tyramide-SS-biotin, 0.01% hydrogen peroxide, on ice 2 min; biotinylated proteins on streptavidin Dynabeads, LC-MS quantitative proteomics; labels proteins within a 20–100 nm radius of CD52

Chains of the proteins cited; added tags and fusions are not shown. Lines headed by an entry give the natural chain unless they say otherwise; changes in a name come on top. Residues count along the entry.
UniProt P31358: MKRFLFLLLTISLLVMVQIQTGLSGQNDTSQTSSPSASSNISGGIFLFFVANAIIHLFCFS
UniProt P06127, residues 25-495: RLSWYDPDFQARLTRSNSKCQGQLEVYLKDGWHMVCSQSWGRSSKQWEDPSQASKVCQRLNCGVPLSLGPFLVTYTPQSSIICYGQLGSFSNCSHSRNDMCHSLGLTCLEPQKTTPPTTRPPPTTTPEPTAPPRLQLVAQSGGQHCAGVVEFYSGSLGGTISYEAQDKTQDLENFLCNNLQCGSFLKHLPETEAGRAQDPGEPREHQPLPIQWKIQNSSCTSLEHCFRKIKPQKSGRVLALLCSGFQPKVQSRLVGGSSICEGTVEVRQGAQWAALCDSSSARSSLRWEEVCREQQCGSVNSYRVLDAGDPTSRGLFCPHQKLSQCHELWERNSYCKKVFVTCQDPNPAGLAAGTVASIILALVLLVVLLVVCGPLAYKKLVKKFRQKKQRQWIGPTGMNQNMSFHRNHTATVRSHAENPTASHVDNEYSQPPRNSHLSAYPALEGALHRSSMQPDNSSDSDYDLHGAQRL
UniProt P09693, residues 23-182: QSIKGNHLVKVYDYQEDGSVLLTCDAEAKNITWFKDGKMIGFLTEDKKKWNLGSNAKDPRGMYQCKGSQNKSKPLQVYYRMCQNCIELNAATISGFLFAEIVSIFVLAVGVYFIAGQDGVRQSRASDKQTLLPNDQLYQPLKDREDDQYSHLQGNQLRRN

| Substance | binding |
| --- | --- |
| CD5 of CD4+ T cells (from UniProt P06127 25-495) | no binding |
| CD3γ of CD4+ T cells (from UniProt P09693 23-182) (receptor) | no binding |
